# Measured values as given in paper doi:10.1101/559096.
# Amino acid sequences for entries named in this document (tags omitted).
# UniProt O14980: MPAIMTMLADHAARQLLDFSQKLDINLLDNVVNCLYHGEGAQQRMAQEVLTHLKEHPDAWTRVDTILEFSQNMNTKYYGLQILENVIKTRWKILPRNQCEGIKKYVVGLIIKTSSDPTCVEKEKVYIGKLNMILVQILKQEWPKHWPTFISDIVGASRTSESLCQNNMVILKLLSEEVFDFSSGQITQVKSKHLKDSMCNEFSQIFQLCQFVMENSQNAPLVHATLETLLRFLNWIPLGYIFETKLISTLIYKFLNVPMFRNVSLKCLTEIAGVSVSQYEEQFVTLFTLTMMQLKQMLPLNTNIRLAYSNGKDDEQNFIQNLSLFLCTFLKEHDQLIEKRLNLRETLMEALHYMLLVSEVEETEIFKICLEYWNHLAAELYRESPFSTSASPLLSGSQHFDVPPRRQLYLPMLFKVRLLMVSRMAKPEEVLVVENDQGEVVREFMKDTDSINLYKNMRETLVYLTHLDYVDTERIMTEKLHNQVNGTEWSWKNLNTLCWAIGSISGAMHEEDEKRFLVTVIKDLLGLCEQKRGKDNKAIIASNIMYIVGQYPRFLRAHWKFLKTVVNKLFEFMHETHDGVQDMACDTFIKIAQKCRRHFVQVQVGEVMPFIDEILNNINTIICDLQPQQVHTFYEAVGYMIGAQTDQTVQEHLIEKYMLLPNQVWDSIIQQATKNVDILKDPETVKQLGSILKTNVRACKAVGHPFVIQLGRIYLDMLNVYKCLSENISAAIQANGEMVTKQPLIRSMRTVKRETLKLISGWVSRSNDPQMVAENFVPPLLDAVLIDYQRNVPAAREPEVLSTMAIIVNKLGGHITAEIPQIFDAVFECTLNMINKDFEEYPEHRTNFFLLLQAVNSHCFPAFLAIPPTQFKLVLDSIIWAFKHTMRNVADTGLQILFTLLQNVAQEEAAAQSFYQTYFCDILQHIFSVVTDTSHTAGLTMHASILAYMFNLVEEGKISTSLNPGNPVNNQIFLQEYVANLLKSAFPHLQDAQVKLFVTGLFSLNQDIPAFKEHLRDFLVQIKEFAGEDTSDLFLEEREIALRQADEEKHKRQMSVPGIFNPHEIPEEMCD
# UniProt P39687: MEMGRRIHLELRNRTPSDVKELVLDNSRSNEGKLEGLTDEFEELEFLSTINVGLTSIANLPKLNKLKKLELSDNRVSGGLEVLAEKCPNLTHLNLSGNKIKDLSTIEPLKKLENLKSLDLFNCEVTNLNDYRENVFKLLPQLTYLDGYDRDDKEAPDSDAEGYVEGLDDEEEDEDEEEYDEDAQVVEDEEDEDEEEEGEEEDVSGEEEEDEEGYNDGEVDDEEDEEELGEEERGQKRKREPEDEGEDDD
# UniProt Q92688: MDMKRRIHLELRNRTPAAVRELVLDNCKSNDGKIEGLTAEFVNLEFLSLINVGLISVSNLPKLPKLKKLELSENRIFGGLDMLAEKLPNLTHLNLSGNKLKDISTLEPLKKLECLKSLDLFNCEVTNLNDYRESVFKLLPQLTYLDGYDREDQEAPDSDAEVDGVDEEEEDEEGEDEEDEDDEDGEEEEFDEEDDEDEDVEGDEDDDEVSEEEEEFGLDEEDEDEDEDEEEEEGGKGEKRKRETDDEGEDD
# No constants are given. Whether binding was seen depends on the method and setting. Binding seen in cells or lysates may run through a third protein. Some entries that bind do so weakly or less than the wild type.
# Tests used:
# CRM1-HA (human) = CRM1-HA (human) (UniProt O14980); assay: co-IP
# CRM1-VN-HA (human) = CRM1-VN-HA (human) (UniProt O14980); assay: split reporter
Substance,binding (CRM1-HA (human)),binding (CRM1-VN-HA (human))
ANP32A-Flag (from UniProt P39687 1-249),binds,
ANP32A-VC-FLAG (from UniProt P39687 1-249),,binds
ANP32B-Flag (from UniProt Q92688 1-251),binds,
